Laboratory results: patent US20040091992A1
Results are given in words; binding and its absence hold for the method and conditions named. Some binding calls cover weakened binding; strength is not graded here.

Protein sequences, listed by entry. Tags and fused reporters are not part of them. Lines headed by an entry give the natural chain unless they say otherwise; changes in a name come on top. Chains listed by the source or under a name are the forms on record and can include a tag or linker.
UniProt P60953: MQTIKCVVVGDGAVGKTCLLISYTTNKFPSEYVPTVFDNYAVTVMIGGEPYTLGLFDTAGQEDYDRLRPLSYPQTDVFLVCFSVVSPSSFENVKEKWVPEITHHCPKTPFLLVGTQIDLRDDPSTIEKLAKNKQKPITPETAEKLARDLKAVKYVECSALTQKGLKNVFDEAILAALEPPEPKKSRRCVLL
Cdc42HsL61 (constitutively active), preloaded with [gamma-32P]GTP (P60953, form named): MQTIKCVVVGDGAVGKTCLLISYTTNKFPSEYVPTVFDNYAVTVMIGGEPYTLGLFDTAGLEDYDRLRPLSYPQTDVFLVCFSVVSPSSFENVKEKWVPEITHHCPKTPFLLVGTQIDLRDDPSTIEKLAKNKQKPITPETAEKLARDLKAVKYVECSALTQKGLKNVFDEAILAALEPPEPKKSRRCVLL
Cdc42HsL61 (F37A) effector mutant, preloaded with [gamma-32P]GTP (P60953, form named): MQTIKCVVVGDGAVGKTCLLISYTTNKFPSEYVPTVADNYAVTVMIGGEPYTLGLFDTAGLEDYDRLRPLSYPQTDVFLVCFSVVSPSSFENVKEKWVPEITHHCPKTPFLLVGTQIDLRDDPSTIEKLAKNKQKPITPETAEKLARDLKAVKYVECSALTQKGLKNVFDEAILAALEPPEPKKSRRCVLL
UniProt P42768: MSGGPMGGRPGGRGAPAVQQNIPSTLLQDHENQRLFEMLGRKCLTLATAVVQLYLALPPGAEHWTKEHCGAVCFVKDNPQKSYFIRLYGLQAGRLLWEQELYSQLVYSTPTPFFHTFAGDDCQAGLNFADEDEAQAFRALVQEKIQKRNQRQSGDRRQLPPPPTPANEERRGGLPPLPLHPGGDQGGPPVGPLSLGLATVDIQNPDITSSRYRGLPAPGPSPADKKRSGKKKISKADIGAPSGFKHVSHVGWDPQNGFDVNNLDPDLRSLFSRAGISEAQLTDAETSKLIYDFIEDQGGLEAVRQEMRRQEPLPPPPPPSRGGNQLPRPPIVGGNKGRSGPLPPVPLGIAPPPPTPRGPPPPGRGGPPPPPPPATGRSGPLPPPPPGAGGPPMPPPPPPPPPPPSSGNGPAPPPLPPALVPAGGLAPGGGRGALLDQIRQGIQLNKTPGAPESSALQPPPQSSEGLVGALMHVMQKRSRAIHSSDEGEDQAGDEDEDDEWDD

Tests used:
[1] = target: Cdc42HsL61 (constitutively active), preloaded with [gamma-32P]GTP (UniProt P60953); assay: overlay assay, GTP loaded Cdc42Hs mutant on blotted protein
[2] = target: Cdc42HsL61 (F37A) effector mutant, preloaded with [gamma-32P]GTP (UniProt P60953); assay: as above

binding [1]: binds | binding [2]: binds
Substance: Recombinant WASP (from UniProt P42768 1-502)
